Record: PubChem BioAssay AID1224830 (NIAID, 2016)
Here is an unselected part of about 18,000 reagents. About 2,900 of all reagents (16%) were called active. 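Calls are made per well; low scores hint the gene aids the LPS response, high scores that it dampens it.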 A number with no mark means an inactive call. Repeated entries: four replicate wells of each siRNA pool.

Purpose: 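Host factors that control LPS-induced TNF expression in human macrophages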 (primary screen)
Cell system: human THP-1 monocytic leukaemia cells, TNF dual-luciferase reporter clone, PMA-differentiated to macrophage-like cells
Reagent: siRNA pool against human genes, 50 nM
Timing: LPS for 4 h, given about 3 days after siRNA transfection
Conditions: bacterial LPS (TLR4 ligand), 10 ng/ml
Read-out: 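TNF firefly reporter luminescence divided by renilla, normalised to the plate median, then turned into a robust z-score for each replicate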
Scale: TNF reporter robust z-score: higher = stronger TNF reporter response to LPS
Rule for the call: 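a well is active when its z-score exceeds 2.8 or falls below -1.5; control wells carry no call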

gene | TNF reporter robust z-score
HCCS | 1.76
HCCS | 1.2
HCCS | -0.46
HCCS | 2.35
STAMBP | -0.12
STAMBP | 0.51
STAMBP | 0.67
STAMBP | 0.93
RNF217 | -0.61
RNF217 | 0.08
RNF217 | -0.37
RNF217 | 0.42
ZFAT | 0.55
ZFAT | -0.73
ZFAT | -0.76
ZFAT | -0.07
PCLAF | -0.37
PCLAF | -0.31
PCLAF | 0.84
PCLAF | 0.75
KCNMB4 | -0.42
KCNMB4 | 1.29
KCNMB4 | 1.64
KCNMB4 | 0.35
MPZL2 | 1.51
MPZL2 | 0.04
MPZL2 | 0.34
MPZL2 | 1.69
SHKBP1 | 0.4
SHKBP1 | 1.47
SHKBP1 | 0.58
OR2T27 | 2.39
OR2T27 | 0.33
OR2T27 | 1.98
OR2T27 | 1.91
RECK | -0.12
RECK | 0.37
RECK | 0
RECK | 0.46
FIS1 | 5.6 (active)
FIS1 | 3.99 (active)
FIS1 | 3.31 (active)
FIS1 | -0.28
SELENOT | 1.06
SELENOT | 0.72
SELENOT | 1.52
SELENOT | 0.66
MTMR14 | -0.06
MTMR14 | -1.04
MTMR14 | 0
MTMR14 | -0.01
CFAP61 | -1.4
CFAP61 | -0.67
CFAP61 | -0.82
CFAP61 | -0.66
AIG1 | 0.94
AIG1 | 2.69
AIG1 | 0.74
AIG1 | 0.54
TMEM255A | -0.81
TMEM255A | 0.77
TMEM255A | 0.11
TMEM255A | -0.32
DMRTA1 | -0.8
DMRTA1 | -0.41
DMRTA1 | -0.26
DMRTA1 | 0.39
TRAM1L1 | -0.3
TRAM1L1 | -0.9
TRAM1L1 | 0.07
TRAM1L1 | 0.78
TAF1L | 0.41
TAF1L | 1.23
TAF1L | 0.23
TAF1L | 1.5
RNF14 | 1.87
RNF14 | 0.43
RNF14 | 0.28
RNF14 | 3.4 (active)
PUS3 | -0.32
PUS3 | 0.68
PUS3 | 0.03
KCNE3 | 0.52
KCNE3 | 0.21
KCNE3 | 0.22
KCNE3 | -0.09
HYI | -0.31
HYI | 0.07
HYI | -0.28
HYI | -0.18
PIM3 | -0.35
PIM3 | 0.13
PIM3 | -0.56
PIM3 | 0.35
WAC | 2.6
WAC | 3.38 (active)
WAC | 2.59
WAC | 1.74
FAM111B | -0.64
FAM111B | 0.16
FAM111B | 1.02
FAM111B | 0.83
SRXN1 | -1.5
SRXN1 | -0.61
SRXN1 | -0.67
SRXN1 | -1.82 (active)
DDX51 | -0.97
DDX51 | -1.02
DDX51 | -0.98
DDX51 | -0.14
SIX1 | 0.63
SIX1 | 0.57
SIX1 | -0.01
SIX1 | -0.4
SETD4 | 0.13
SETD4 | 0.71
SETD4 | -0.15
SETD4 | 0.15
H1-7 | 0.41
H1-7 | 0.95
H1-7 | -0.46
H1-7 | 0.39
LHFPL5 | -0.08
LHFPL5 | 0.73
LHFPL5 | -0.11
LHFPL5 | 0.95
GMPPB | 1.2
GMPPB | 0.81
GMPPB | 1.58
GMPPB | 1
LOX | -0.07
LOX | 0.39
LOX | -0.01
LOX | -0.67
MAGEB2 | -0.71
MAGEB2 | -0.22
MAGEB2 | 0.37
MAGEB2 | -0.23
NFE2L2 | -0.55
NFE2L2 | 0.62
NFE2L2 | 0.07
NFE2L2 | 0.4
